According to patent publication US20230088461A1:

Molecular target: GPC3 on GPC3 positive human hepatocellular carcinoma cell lines (HepG2, Huh7, PLC/PRF/5) (human), P51654
Assay: cell-based or functional assay

IFN-γ release (HTRF) after 20 h co-culture with HepG2 cells, E/T 3:1 [µg/mL] | TNF-α release (HTRF) after 20 h co-culture with HepG2 cells, E/T 3:1 [µg/mL] | Binder | cytotoxicity on HepG2 cells, E/T 3:1 [%] | cytotoxicity on Huh7 cells, E/T 3:1 [%] | cytotoxicity on PLC/PRF/5 cells, E/T 3:1 [%]
31000 | 5450 | huLIC19309a CAR (protein) DIVMTQSPDSLAVSLGERATINCRSSQTIVHSNGNTYLEWYQQKPGQPPKLLIYKVSNRFSGVPDRFSGSGSGTDFTLTISSLQAEDVAVYYCFQVSHVPYTFGGGTKLEIKGSTSGSGKPGSGEGSTKGQVQLVQSGAEVKKPGASVKVSCKASGYTFTDYEMHWVRQAPGQRLEWMGGIDPETGNTAYSQKFKGRVTITRDTSASTAYMELSSLRSEDTAVYYCARYYSFAYWGQGTLVTVSSTSTTTPAPRPPTPAPTIASQPLSLRPEACRPAAGGAVHTRGLDFACDIYIWAPLAGTCGVLLLSLVITLYCKRGRKKLLYIFKQPFMRPVQTTQEEDGCSCRFPEEEEGGCELRVKFSRSADAPAYQQGQNQLYNELNLGRREEYDVLDKRRGRDPEMGGKPRRKNPQEGLYNELQKDKMAEAYSEIGMKGERRRGKGHDGLYQGLSTATKDTYDALHMQALPPR | 93.8 | 97.5 | 73.5
24800 | 6080 | huLIC19309b CAR (protein) DIVMTQSPLSLPVTPGEPASISCRSSQTIVHSNGNTYLEWYLQKPGQSPQLLIYKVSNRFSGVPDRFSGSGSGTDFTLKISRVEAEDVGVYYCFQVSHVPYTFGGGTKLEIKGSTSGSGKPGSGEGSTKGQVQLVQSGAEVKKPGASVKVSCKASGYTFTDYEMHWVRQATGQGLEWMGGIDPETGNTAYSQKFKGRVTMTRNTSISTAYMELSSLRSEDTAVYYCARYYSFAYWGQGTLVTVSSTSTTTPAPRPPTPAPTIASQPLSLRPEACRPAAGGAVHTRGLDFACDIYIWAPLAGTCGVLLLSLVITLYCKRGRKKLLYIFKQPFMRPVQTTQEEDGCSCRFPEEEEGGCELRVKFSRSADAPAYQQGQNQLYNELNLGRREEYDVLDKRRGRDPEMGGKPRRKNPQEGLYNELQKDKMAEAYSEIGMKGERRRGKGHDGLYQGLSTATKDTYDALHMQALPPR | 97 | 94.1 | 72.2
